For two compounds, IC50 results are on record in the Kinase Knowledgebase extract (Sharma et al. 2016).

The chains behind the UniProt entries cited, without tags or fusion partners. Where a name states a change or a piece, a line headed by the entry shows the natural chain unless it says otherwise.
UniProt O00329: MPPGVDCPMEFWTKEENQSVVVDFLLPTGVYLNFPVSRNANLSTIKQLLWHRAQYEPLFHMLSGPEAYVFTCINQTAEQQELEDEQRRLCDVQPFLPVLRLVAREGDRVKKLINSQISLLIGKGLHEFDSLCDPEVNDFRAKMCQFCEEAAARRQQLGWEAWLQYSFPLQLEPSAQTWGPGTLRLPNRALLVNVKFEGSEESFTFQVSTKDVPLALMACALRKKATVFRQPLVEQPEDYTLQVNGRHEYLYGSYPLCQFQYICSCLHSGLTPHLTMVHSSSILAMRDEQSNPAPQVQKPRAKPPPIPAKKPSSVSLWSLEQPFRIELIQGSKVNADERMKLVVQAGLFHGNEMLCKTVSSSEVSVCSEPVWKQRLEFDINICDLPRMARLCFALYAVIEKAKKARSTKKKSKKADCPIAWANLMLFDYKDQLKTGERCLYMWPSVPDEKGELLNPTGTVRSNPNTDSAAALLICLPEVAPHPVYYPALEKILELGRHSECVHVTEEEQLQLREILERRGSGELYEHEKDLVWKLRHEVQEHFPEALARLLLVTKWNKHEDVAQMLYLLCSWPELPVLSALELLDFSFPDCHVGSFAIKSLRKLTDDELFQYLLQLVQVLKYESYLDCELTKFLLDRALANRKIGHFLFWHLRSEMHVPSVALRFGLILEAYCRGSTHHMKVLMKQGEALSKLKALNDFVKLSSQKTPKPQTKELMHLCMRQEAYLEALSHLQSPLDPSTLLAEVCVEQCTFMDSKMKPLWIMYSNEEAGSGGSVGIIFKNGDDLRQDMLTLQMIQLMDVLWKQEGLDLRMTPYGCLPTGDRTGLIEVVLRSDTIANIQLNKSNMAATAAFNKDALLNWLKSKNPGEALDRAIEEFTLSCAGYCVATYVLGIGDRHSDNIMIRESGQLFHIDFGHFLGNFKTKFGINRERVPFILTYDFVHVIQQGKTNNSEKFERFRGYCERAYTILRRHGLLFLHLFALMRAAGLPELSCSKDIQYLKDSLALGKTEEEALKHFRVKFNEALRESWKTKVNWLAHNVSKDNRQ
UniProt P42338: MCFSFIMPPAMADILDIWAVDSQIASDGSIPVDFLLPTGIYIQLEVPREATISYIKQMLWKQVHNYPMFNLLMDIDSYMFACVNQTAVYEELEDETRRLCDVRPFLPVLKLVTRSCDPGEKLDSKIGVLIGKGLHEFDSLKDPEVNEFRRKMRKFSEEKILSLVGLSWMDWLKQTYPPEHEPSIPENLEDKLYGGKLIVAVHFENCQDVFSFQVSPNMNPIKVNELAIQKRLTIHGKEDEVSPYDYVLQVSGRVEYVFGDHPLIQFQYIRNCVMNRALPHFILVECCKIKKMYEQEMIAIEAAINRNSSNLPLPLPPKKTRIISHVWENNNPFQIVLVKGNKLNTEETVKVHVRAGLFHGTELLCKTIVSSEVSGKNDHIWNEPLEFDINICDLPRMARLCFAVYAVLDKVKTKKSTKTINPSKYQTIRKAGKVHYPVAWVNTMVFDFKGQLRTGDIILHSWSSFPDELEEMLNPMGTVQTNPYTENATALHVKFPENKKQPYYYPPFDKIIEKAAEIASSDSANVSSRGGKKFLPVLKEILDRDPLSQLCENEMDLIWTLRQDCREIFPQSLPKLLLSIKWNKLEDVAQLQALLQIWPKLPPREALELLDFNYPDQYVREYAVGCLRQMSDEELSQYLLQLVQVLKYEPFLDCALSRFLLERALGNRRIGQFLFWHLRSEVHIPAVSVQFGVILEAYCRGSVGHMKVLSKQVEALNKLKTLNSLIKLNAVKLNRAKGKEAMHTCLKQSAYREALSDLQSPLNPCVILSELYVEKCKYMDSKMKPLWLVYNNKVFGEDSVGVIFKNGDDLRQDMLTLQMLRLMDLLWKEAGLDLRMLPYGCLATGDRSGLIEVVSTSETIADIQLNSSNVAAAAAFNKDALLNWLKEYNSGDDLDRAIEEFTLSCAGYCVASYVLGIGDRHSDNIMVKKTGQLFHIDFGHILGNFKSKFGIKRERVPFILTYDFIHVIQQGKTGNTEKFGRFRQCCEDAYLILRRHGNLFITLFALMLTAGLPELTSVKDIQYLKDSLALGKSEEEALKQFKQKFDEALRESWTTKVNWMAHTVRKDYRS

One experiment deals with PIK3CD (Human) (UniProt O00329).
The target in another experiment is PIK3CB (Human) (UniProt P42338).

A value given as a limit tells only on which side of the number the result lay.

For the compound `Cc1cc(-c2cc(-c3cc(S(=O)(=O)N[C@H](CO)C(F)(F)F)ccc3C)cnc2N)on1`, the IC50 at PIK3CD (Human) came to 1200 nM; against PIK3CB (Human), 5000 nM.
For `Cc1cc(-c2cc(-c3cc(S(=O)(=O)N[C@@H](CO)C(F)(F)F)ccc3C)cnc2N)on1`, the IC50 is 720 nM at PIK3CD (Human) and over 10000 nM against PIK3CB (Human).

A word on the IC50: it is the midpoint of a concentration-inhibition curve. The low end stands for inhibition by little substance, the high end for a need for much substance.
